Assay results reported in article PMC9396447.
Results are given in words; binding and its absence hold for the method and conditions named. In cells and extracts the contact can be indirect. Some binding calls cover weakened binding; strength is not graded here.

Chains of the proteins cited; added tags and fusions are not shown. Lines headed by an entry give the natural chain unless they say otherwise; changes in a name come on top. Residues count along the entry.
UniProt Q16595: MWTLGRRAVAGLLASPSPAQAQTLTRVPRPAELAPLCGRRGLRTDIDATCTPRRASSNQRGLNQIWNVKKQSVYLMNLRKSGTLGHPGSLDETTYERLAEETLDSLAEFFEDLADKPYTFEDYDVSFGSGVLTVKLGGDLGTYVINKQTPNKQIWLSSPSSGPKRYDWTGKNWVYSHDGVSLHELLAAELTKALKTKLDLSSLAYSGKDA
human frataxin intermediate form (6XHis-frataxin^42–210): residues 42-210 of Q16595
human mature frataxin (frataxin^81–210-6XHis): residues 81-210 of Q16595
UniProt Q9D0K2, residues 40-520: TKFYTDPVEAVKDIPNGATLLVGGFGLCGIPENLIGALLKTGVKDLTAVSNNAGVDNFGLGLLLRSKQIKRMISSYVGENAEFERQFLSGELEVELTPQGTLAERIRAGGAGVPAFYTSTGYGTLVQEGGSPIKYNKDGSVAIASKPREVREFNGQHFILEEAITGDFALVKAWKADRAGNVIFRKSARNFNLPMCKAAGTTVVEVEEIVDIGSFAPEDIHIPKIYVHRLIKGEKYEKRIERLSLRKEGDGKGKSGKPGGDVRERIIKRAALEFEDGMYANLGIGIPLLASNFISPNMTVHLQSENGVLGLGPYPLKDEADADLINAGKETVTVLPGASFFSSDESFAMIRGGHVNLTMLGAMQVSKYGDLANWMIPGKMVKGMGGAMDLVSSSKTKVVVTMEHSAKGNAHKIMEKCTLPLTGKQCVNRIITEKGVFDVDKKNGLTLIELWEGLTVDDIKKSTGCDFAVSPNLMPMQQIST

Tests used:
[1] = molecular target: human frataxin intermediate form (6XHis-frataxin^42–210) (human) (UniProt Q16595); test: pull-down; purified recombinant 6XHis-tagged human frataxin forms as bait, mouse cortical homogenates; blot for OXCT1; beads-only control; only the target purified
[2] = molecular target: human mature frataxin (frataxin^81–210-6XHis) (human) (UniProt Q16595); test: as above
[3] = molecular target: T1, frataxin (endogenous, mouse cortex / cultured cortical neurons) (mouse (endogenous in mouse cortex)) (UniProt O35943); test: co-IP; mouse cortical (brain) homogenates; anti-frataxin antibody (Abcam) overnight at 4°C, protein G beads 2 h at 4°C, four washes with RIPA buffer; blot; control IgG
T1 sequence: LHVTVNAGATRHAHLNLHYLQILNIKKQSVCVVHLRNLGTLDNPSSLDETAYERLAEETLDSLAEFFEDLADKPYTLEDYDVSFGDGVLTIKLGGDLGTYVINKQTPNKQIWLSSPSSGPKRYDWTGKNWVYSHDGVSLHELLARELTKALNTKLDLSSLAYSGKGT

[4] = molecular target: T1, frataxin (endogenous, mouse cortex / cultured cortical neurons) (mouse (endogenous in mouse cortex)); test: co-IP; cultured mouse cortical neuronal lysates; anti-frataxin antibody (Abcam) overnight at 4°C, protein G beads 2 h at 4°C, four washes with RIPA buffer; blot; control IgG

Measured: binding

3-Oxoacid CoA-Transferase 1 (OXCT1), endogenous, mouse cortex / cultured cortical neurons (from UniProt Q9D0K2 40-520) (enzyme)
binds: all assays above
